PubChem BioAssay AID445 (National Center for Advancing Translational Sciences (NCATS), 2006)
This is one part of the list. Further columns of the screen follow, without active or inactive calls. Most of these compounds were active or inconclusive in the main read-out, so they are no random draw. The note in brackets gives the kind of curve behind each potency; many fits are weak.

Assay: IkB Signaling
Details: ABC-DLBCL IkBa-CBG/CBR dual luciferase ratio (green luciferase fused to IkBa over red control in OCI-Ly3 lymphoma cells), 4 h
Outline: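 Curves were fitted separately to fusion (green), unfused (red) and ratio luminescence, then classed by r2, magnitude and activity. Cells: OCI-Ly3, 4 h compound plus doxycycline at 37C; 10 uM MG-132 defined full response.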

[1] = measured here: control luc red channel unless noted

Compound: O=C(O)c1ccccc1Nc1cccc(OCc2ccc3ccccc3n2)c1
- AC50 [1]: 5.01 µM [falling, partial curve]

Compound: O=C(Nc1nc2ccccc2[nH]1)C1CC(=O)N(c2ccc3c(c2)OCCO3)C1 (stereo not given)
- AC50 [1]: 20 µM [falling, partial curve]

Compound: COC(=O)C(O)(CC(=O)Nc1ccc(OC(F)(F)F)cc1)C(F)(F)F (stereo not given)
- AC50 [1]: 1.58 µM [falling, partial curve]

Compound: CCCOc1ccc(CNC(=O)CCCN2C(=O)CSc3c2c(C)nn3-c2ccccc2)cc1
- AC50 [1]: 20 µM [falling, partial curve]

Compound: COc1cccc(NC(=O)CCSc2nnc3scc(-c4ccccc4)n23)c1
- AC50 [1]: 20 µM [falling, partial curve]

Compound: CC1=C(C(=O)OCCOc2ccccc2)C(c2ccc(C)o2)C2=C(CC(C)(C)CC2=O)N1 (stereo not given)
- AC50 [1]: 10 µM [falling, partial curve]

Compound: N#Cc1cccc(NC(=O)C2CCN(S(=O)(=O)c3ccc4c(c3)CCCN4C(=O)C3CCC3)CC2)c1
- AC50 [1]: 0.251 µM [falling, full curve, poor fit]

Compound: Cc1ccc(NCc2nnc(SCC(=O)NCc3ccco3)n2CC2CCCO2)cc1Cl (stereo not given)
- AC50 [1]: 31.6 µM [falling, partial curve]

Compound: COc1cc(SC)ccc1C(=O)N1CCn2c3c(c4cc(C)ccc42)CCCC31 (stereo not given)
- AC50 [1]: 12.6 µM [falling, partial curve]

Compound: Cc1ccc(C(=O)Nc2c(C)nc3ccccn3c2=O)cc1
- AC50 [1]: 10 µM [rising, partial curve, poor fit]

Compound: Cc1ccc(C)c(N2CCN(C(=O)CCc3c(C)nn(-c4ccc(N5CCCC5)nn4)c3C)CC2)c1
- AC50 [1]: 31.6 µM [falling, single point]

Compound: COc1ccccc1CNC(=O)CSc1nc2nc(C)c(Cc3ccccc3C)c(C)n2n1
- AC50 [1]: 0.158 µM [falling, full curve]

Compound: Cc1ccc(-c2c3c(=O)n(C)c(=O)n(C)c3cn2-n2cnnc2)cc1
- AC50 [1]: 31.6 µM [rising, partial curve] [measured here: IkB-luc green channel]

Compound: O=C(CCCCCn1c(=O)[nH]c2ccsc2c1=O)NCc1ccccc1
- AC50 [1]: 2 µM [falling, single point]

Compound: Cc1cc(C(=O)CSc2nnc(Nc3ccccc3F)s2)c(C)n1CC1CCCO1 (stereo not given)
- AC50 [1]: 25.1 µM [falling, partial curve]

Compound: CCOc1ccc(CNC(=O)Cn2nc(N3CCN(c4ccccc4)CC3)ccc2=O)cc1
- AC50 [1]: 31.6 µM [falling, partial curve, poor fit]

Compound: Cc1ccccc1CSc1nc2c([nH]c3ccccc32)c(=O)n1-c1ccccc1
- AC50 [1]: 1.58 µM [rising, full curve, poor fit]

Compound: Cc1ccc(C(=O)N2CCN(c3ccccc3)CC2)cc1NC(=O)c1nsc2ccccc12
- AC50 [1]: 25.1 µM [falling, partial curve]

Compound: N#Cc1c(C(F)(F)F)cc(-c2cccs2)nc1SCC(=O)Nc1cccc(Br)c1
- AC50 [1]: 3.16 µM [falling, full curve, poor fit]

Compound: Cc1ccc(-c2nnc(Nc3ccc(F)cc3)c3ccccc23)cc1S(=O)(=O)NC(C)C
- AC50 [1]: 10 µM [falling, partial curve]

Compound: CC(C)c1ccc(NC(=O)C2CCCN(S(=O)(=O)c3ccc4[nH]c(=O)oc4c3)C2)cc1 (stereo not given)
- AC50 [1]: 15.8 µM [falling, single point]

Compound: Cn1c(-c2cccc(Br)c2)cnc1NCc1cccc(F)c1
- AC50 [1]: 7.94 µM [rising, full curve, poor fit]

Compound: CC(=O)c1c(C)[nH]c(C(=O)CSc2nnc(-c3ccco3)n2Cc2ccccc2)c1C
- AC50 [1]: 15.8 µM [falling, partial curve]

Compound: N#Cc1nc(-c2ccco2)oc1N1CCc2ccccc2C1
- AC50 [1]: 1.58 µM [rising, full curve]

Compound: CC(C)CNC(=O)C(=O)Nc1c2c(nn1-c1ccc(Cl)cc1)CSC2
- AC50 (measured here: IkB-luc green channel): 3.16 µM [rising, single point]
- AC50 (measured here: control luc red channel): 10 µM [rising, partial curve]

Compound: CCOc1ccc(NC(=O)CSc2nc3ccccc3nc2N2CCOCC2)cc1
- AC50 [1]: 20 µM [falling, single point]

Compound: COc1ccc(S(=O)(=O)NC(C)(C)CO)cc1-c1nnc2c3ccccc3c(C)nn12
- AC50 [1]: 3.16 µM [rising, single point]

Compound: O=c1c(N2CCN(c3ccc(F)cc3)CC2)csc2ccc(F)cc12
- AC50 [1]: 15.8 µM [falling, partial curve]

Compound: CC1CCN(S(=O)(=O)c2ccc3nc(Nc4cccc(F)c4)ccc3c2)CC1
- AC50 [1]: 25.1 µM [falling, single point]

Compound: c1ccc(Nc2nc3ccccc3n3cnnc23)cc1
- AC50 [1]: 0.631 µM [rising, full curve]

Compound: O=C(c1cn(-c2ccccc2)nc1-c1cccs1)N1CCN(c2ccccn2)CC1
- AC50 [1]: 31.6 µM [falling, partial curve]

Compound: COc1ccc(OC)c(N(C)S(=O)(=O)c2ccc3c(c2)NC(=O)CC(=O)N3)c1
- AC50 [1]: 10 µM [falling, partial curve]

Compound: O=S(=O)(Cc1ccccc1)N1CCCC(c2nc(-c3ccc(F)cc3)no2)C1 (stereo not given)
- AC50 [1]: 12.6 µM [falling, partial curve]

Compound: Cc1ccc(NC(=O)CCCn2c(=O)c3cccn3c3cccnc32)c(C)c1
- AC50 [1]: 0.0631 µM [rising, full curve]

Compound: CCCN(CCC)C(=O)CSc1nc2n[nH]c(C)c2c(=N)n1-c1ccc(OCC)cc1
- AC50 [1]: 15.8 µM [falling, partial curve]

Compound: COc1ccccc1N1CCN(CC(=O)Nc2cc(F)ccc2C)CC1
- AC50 [1]: 20 µM [falling, partial curve]

Compound: COc1ccc(NC(=O)c2[nH]c(C)c(C(C)=O)c2C)cc1Cl
- AC50 [1]: 25.1 µM [falling, single point]

Compound: CCOc1ccc(NC(=O)c2cnn3c2NC(C)=C(C(=O)Nc2ccc(Cl)cc2)C3c2ccc(OC)c(OC)c2)cc1 (stereo not given)
- AC50 [1]: 0.00631 µM [falling, full curve, poor fit]

Compound: COc1ccc(N(C)C(=O)c2oc(=O)c3ccccc3c2-c2ccc(C)cc2)c(OC)c1
- AC50 [1]: 39.8 µM [falling, single point]
